“Also recorded” adds a separate entry of the source. At least one compound was matched to its structure with a doubt left.
Experiments:
[1] = test system: mouse CNV model; test: Leukocyte infiltration (CD45 staining) in laser-induced CNV mouse model; assay type: in vivo
Description: (§1) Mice (C57BL/6J, male, 8-10 weeks old) were anesthetized by intraperitoneal injection (135 μL) of a mixture of ketamine hydrochloride (Anesketin; […]) and medetomidine (Domitor; 1 mg/mL) and their pupils dilated with one eye drop (50 μL) Tropicamide (Tropicol™; 5 mg/mL; Thea, Research Papers Clermont-Ferrand, France). Three laser burns were placed in one eye with a green laser at the 9, 12, 3 o'clock positions around the optic disk using a slit lamp delivery system with a hand-held cover slide as a contact lens moisturized with Genteal Gel™ (Novartis, Vilvoorde, Belgium). Each spot was placed with a spot size of 100 μm, laser duration of a 50 milliseconds and a power of 320 mW. […] Finally, 300 μL atipamezole (Antisedan; 5 mg/mL) was injected intraperitoneally to reverse the effect of medetomidine and to reduce sedation time.
(§2) At different time points after lasering, the compounds were administered intravitreally (IVT). The animal was anesthetized with a mixture of ketamine hydrochloride/medetomidine and the eye was treated with a drop of 0.4% oxybuprocaine (Unicaine; Thea Pharma). Intravitreal injections (1 μL) to one eye according to Tables 1 to 3 were performed by using an analytic science syringe (SGE Analytic Science) and glass capillaries with a diameter of 50-70 μm at the end, controlled by the UMP3I Microsyringe Injector and Micro4 Controller (all from World Precision Instruments Inc., Hertfordshire, UK). Finally, atipamezole (Antisedan) was injected intraperitoneally to reverse the effect of medetomidine and to reduce sedation time.
To analyze the in vivo efficacy of the different compounds, the retina was removed from the dissected posterior segments. These posterior eye cups, which included retinal pigment epithelium (RPE), the choroid and the sclera were stored in phosphate buffered saline (PBS). […]
(Axiocam MrC5; Carl Zeiss, Oberkochen, Germany) at a magnification of 20×. […] The density of inflammation was determined by calculating the CD45-positive area as a proportion of the total lesion.

[2] = test system: mouse CNV model; test: Posterior ocular collagen deposition (Col1a staining) in laser-induced CNV mouse model; assay type: in vivo; details: day 30
Description: as §1, §2
To analyze the in vivo efficacy of the different compounds, the retina was removed from the dissected posterior segments. These posterior eye cups, which included retinal pigment epithelium (RPE), the choroid and the sclera were stored in phosphate buffered saline (PBS).
To stain for the presence of collagen type 1 (Colla) protein in the laser spots at day 30 after laser, a rabbit anti-collagen antibody (Abcam, 1/270) was used overnight, diluted in Tris-buffered saline (TBS)-Triton 0.5% (v/v) at 4° C. The following day, the tissues were incubated for 2 hours with goat anti rabbit IgG Alexa Fluor 555 (Life Technologies; A-21428), diluted 1/100 in TBS-Triton 0.3% (v/v) at 4° C. The flat mounts of the posterior eye cups were mounted with Prolong Gold with 4′,6-diamidino-2-phenylindole (DAPI, Molecular Probes). Images were obtained using a microscope with a digital camera (Axiocam MrC5; Carl Zeiss, Oberkochen, Germany) at a magnification factor of 20. Morphometric analyses were performed using commercial software (Axiovision; Zeiss, Oberkochen, Germany). The density of collagen deposition was determined by calculating the Colla-positive area as a proportion of the total lesion. […]

Structure (SMILES): CC1(C)O[C@@H]2C[C@H]3[C@@H]4CCC5=CC(=O)C=C[C@]5(C)[C@@]4(F)[C@@H](O)C[C@]3(C)[C@]2(C(=O)CO)O1 [TAAC, triamcinolone acetonide]
- effect on leukocyte infiltration (CD45), in words ([1]; day 5, equimolar comparison FIG. 1B: 5D11D4 3.1 μg, DC101 3.1 μg, aflibercept 2.4 μg, TAAC 4 μg, vs IgG): did not show any anti-inflammatory effects
- effect on leukocyte infiltration (CD45), in words ([1]; day 5 after lasering, IVT D0, 40 μg, vs IgG (FIG. 1A)): decreased the leukocyte infiltration; also recorded: comparable effects
- effect on leukocyte infiltration (CD45), in words ([1]; day 5 after lasering, IVT D0, lower concentrations (below 40 μg)): did not have an effect
- effect on collagen deposition, in words ([2]; equimolar comparison FIG. 2B: 5D11D4 3.1 μg, DC101 3.1 μg, aflibercept 2.4 μg, TAAC 4 μg, vs IgG): did not show any anti-fibrotic effects
- effect on collagen deposition, in words ([2]; repeated IVT, 40 μg (FIG. 2A), relative to effect of 5D11D4): comparable; also recorded: similar
- effect on collagen deposition, in words ([2]; repeated IVT, lower concentrations (below 40 μg)): did not have an effect
- effect on collagen deposition / fibrosis, in words ([2]; repeat experiment (FIG. 4), 40 μg/eye, relative to anti-PlGF antibodies): similar
